Source: PMC4022855
For at least one entry, the source does not settle the construct or the ends of the probe. Where cells or extracts were used, other partners may take part. No signal at the amounts used counts as a negative. Tags and fusion partners may be left off the protein sequences shown.

Assays:
Sox9 [1] = target: T1, Sox9 (UniProt Q04887); test: EMSA; details: EMSA with Chemiluminescent Nucleic Acid Detection Module (Thermo Scientific), manufacturer's protocol, pH and temperature not stated, protein in a lysate after overexpression
T1 sequence (looked up, limits assumed): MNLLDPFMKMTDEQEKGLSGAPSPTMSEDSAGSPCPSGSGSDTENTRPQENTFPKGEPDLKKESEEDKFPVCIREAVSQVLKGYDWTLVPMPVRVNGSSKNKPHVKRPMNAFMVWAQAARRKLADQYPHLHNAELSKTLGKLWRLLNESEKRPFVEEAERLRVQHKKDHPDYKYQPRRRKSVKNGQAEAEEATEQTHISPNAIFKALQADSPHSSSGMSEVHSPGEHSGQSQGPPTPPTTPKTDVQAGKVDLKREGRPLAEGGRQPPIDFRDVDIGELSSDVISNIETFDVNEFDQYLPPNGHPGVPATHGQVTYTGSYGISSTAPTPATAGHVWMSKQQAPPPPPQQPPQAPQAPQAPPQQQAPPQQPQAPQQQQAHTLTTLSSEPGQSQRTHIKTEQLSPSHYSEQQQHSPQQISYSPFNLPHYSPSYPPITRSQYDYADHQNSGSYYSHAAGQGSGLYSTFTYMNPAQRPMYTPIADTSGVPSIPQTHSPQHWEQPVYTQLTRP

Sox9 [2] = target: T1, Sox9; test: competition with a labelled probe; details: unlabeled mutated competitor does not abolish binding to Sox-wt probe; EMSA with Chemiluminescent Nucleic Acid Detection Module (Thermo Scientific), manufacturer's protocol; pH and temperature not stated; protein in a lysate after overexpression

Sequence | binding result (Sox9 [1]; abolished by 100-fold excess unlabeled competitor) | binding result (Sox9 [1]; mutated probe, lane 5) | binding result (Sox9 [2])
GGTAACCTTGTCTCAAAAACAAAACAACAAAATCCTATGA (double strand) [Sox-wt (Bbf2h7 promoter, downstream Sox motif)] | binds | – | –
GGTAACCTTGTCTCAAAAACGCAACAACAAAATCCTATGA (double strand) [Sox-mt] | – | no binding | no binding
